According to PMC10851605:
No constants are given. Whether binding was seen depends on the method and setting. Binding seen in cells or lysates may run through a third protein. Some entries that bind do so weakly or less than the wild type.

Amino acid sequences for entries named in this document (tags omitted).
UniProt P29350: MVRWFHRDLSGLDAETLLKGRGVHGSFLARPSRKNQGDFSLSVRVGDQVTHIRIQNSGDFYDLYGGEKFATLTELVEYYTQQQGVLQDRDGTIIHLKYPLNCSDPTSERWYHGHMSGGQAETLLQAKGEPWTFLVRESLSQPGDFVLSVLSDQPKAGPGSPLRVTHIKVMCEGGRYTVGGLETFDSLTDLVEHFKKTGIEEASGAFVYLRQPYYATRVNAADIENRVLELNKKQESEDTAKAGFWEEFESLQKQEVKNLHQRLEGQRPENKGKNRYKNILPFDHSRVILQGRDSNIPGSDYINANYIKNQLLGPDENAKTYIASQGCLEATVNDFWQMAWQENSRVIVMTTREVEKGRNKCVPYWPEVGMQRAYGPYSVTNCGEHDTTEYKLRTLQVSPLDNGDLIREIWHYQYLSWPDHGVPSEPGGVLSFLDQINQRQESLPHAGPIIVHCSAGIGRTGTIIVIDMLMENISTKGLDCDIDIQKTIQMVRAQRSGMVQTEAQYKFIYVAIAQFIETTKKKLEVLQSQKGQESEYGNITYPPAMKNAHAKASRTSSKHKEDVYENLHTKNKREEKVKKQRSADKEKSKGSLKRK
UniProt P14618: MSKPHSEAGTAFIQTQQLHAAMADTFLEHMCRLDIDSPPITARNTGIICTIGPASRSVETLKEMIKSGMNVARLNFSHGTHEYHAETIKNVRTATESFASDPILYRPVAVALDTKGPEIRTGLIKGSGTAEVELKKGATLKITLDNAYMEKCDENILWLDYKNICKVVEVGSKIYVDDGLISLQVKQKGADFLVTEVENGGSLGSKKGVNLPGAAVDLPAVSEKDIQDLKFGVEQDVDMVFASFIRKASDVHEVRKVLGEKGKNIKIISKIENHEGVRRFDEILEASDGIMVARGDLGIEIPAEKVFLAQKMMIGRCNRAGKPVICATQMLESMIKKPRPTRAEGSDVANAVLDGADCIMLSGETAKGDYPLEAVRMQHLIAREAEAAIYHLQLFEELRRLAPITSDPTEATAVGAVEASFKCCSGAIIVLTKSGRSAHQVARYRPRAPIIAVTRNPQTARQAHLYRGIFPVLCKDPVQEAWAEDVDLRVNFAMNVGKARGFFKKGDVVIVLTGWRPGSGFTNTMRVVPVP

Target: SHP1 (human (endogenous in Jurkat)) (UniProt P29350)
Assay: co-IP; endogenous SHP1, PKM2 and LDHB each captured with its antibody on protein A/G agarose beads from Jurkat cell lysate, 4 °C overnight; detection by western blot; mouse IgG as control

With “pyruvate kinase M2 (PKM2) (from UniProt P14618 1-531) (enzyme)” as the substance, how does the binding read?
Its binding is “binds”.
